From paper PMC12445521
Results are given in words; binding and its absence hold for the method and conditions named. Binding seen in cells or lysates may run through a third protein. Here binding means that the protein was enriched with, or labelled near, the bait; the list need not be complete.

Columns and labels:
[1] = target: GFP-tagged PDCoV M protein (porcine deltacoronavirus (PDCoV), strain CZ/2020); test: affinity purification with mass spectrometry; IPEC-J2 cells transfected with C-terminally GFP-tagged structural proteins (pCDNA3.1) or GFP vector; immunoprecipitated proteins analysed and quantified by mass spectrometry
[2] = target: GFP-tagged PEDV M protein (porcine epidemic diarrhea virus (PEDV), strain AH2012/12); test: affinity purification with mass spectrometry
[3] = target: GFP-tagged PEDV M protein (porcine epidemic diarrhea virus (PEDV), strain AH2012/12); test: affinity purification with mass spectrometry; IPEC-J2 cells transfected with C-terminally GFP-tagged structural proteins (pCDNA3.1) or GFP vector; immunoprecipitated proteins analysed and quantified by mass spectrometry

B1: Phosphoglycerate kinase 1 (protein, UniProt Q7SIB7 1-417)
chain: MSLSNKLTLDKLDVKGKRVVMRVDFNVPMKNNQITNNQRIKAAIPSIKFCLDNGAKSVVLMSHLGRPDGIPMPDKYSLEPVAVELKSLPGKDVLFLKDCVGPEVEKACADPAAGSVILLENLRFHVEEEGKGKDASGSKVKADPAKIEAFRASLSKLGDVYVNDAFGTAHRAHSSMVGVNLPKKAGGFLMKKELNYFAKALESPERPFLAILGGAKVADKIQLINNMLDKVNEMIIGGGMAFTFLKVLNNMEIGTSLFDEEGSKIVKDLMSKAEKNGVKITLPVDFVTADKFDENAKIGQATVASGIPAGWMGLDCGPESSKKYSEAVARAKQIVWNGPVGVFEWEAFAQGTKALMDEVVKATSRGCITIIGGGDTATCCAKWNTEDKVSHVSTGGGASLELLEGKVLPGVDALSNV
With B1 the binding [1] was “binds”.

B2: Aldehyde dehydrogenase 1 family member A1 (protein, UniProt I3LRS5 1-501)
chain: MSSSAMPDIPVPLTNLKFQYTKIFINNEWHNSVSGKKFPVFNPATEEKLCEVEEGDKEDVDKAVKAARQAFQIGSPWRTMDASERGQLINKLADLIERDRLLLATMESMNGGKLFSNAYLMDLGGCIRTLRYCAGWADKIHGRTIPMDGNFFTYTRSEPIGVCGQIIPWNFPLVMLIWKIGPALSCGNTVVVKPAEQTPLTALHVASLIKEAGFPPGVVNIVPGYGPTAGAAISSHMDVDKVAFTGSTQVGKMIKEAAGKSNLKRVTLELGGKSPCIVFADADLDAAVEFAHHGLFYHQGQCCIAASRLFVEESIYNEFVRKSVERAKKYVLGNPLTPGVNQGPQIDKEQYEKILDLIESGKKEGAKLECGGGPWGNKGYFIQPTVFSNVTDEMRIAKEEIFGPVQQIMKFKSLDDVIKRANNTLYGLSAGIFTKDIDKAITVSSALQSGTVWVNCYGVLSAHCPFGGFKMSGNGRELGEYGLHEYTEIKTVTIKISQKNS
B2 was tested, and the binding [2] was “binds”.

B3: Mediator of ErbB2-driven cell motility (protein, UniProt F2Z5F8 1-297)
chain: MSNRVVCREASHAGSWYTASGPQLNAQLEGWLSQVQSTKRPARAIIAPHAGYTYCGSCAAHAYKQVDPSITRRIFILGPSHHVPLSRCALSSVDIYRTPLYDLRIDQKIYGELWKTGMFERMSLQTDEDEHSIEMHLPYTAKAMESHKDEFTIIPVLVGALSESKEQEFGKLFSKYLADPSNLFVVSSDFCHWGQRFRYSYYDESQGEIYRSIEHLDKMGMSIIEQLDPVSFSNYLKKYHNTICGRHPIGVLLNAITELQKNGMNMSFSFLNYAQSSQCRNWQDSSVSYAAGALTVH
In the case of B3, the binding [3] is reported as “binds”.

B4: High mobility group protein B2 (protein, UniProt P17741 1-210)
chain: MGKGDPNKPRGKMSSYAFFVQTCREEHKKKHPDSSVNFAEFSKKCSERWKTMSAKEKSKFEDMAKSDKARYDREMKNYVPPKGDKKGKKKDPNAPKRPPSAFFLFCSEHRPKIKSEHPGLSIGDTAKKLGEMWSEQSAKDKQPYEQKAAKLKEKYEKDIAAYRAKGKGEAGKKGPGRPTGSKKKNEPEDEEEEEEEEEDEDEEEEDEDEE
In the case of B4, the binding [3] is reported as “binds”.

B5: Junction plakoglobin (protein, UniProt Q8WNW3 1-745)
chain: MEVMNLIEQPIKVTEWQQTYTYDSGIHSGANTCVPSVSSKGLMEEDEACGRQYTLKKTTTYTQAVPQSQGDLEYQMSTTARAKRVREAMCPGVTGEDSSLLLATQVEGQTTNLQRLAEPSQLLKSAIVHLINYQDDAELATRALPELTKLLNDEDPVVVTKAAMIVNQLSKKEASRRALMGSPQLVAAVVRTMQNTSDLDTARCTTSILHNLSHHREGLLAIFKSGGIPALVRMLSSPVESVLFYAITTLHNLLLYQEGAKMAVRLADGLQKMVPLLNKNNPKFLAITTDCLQLLAYGNQESKLIILANGGPQALVQIMRNYSYEKLLWTTSRVLKVLSVCPSNKPAIVEAGGMQALGKHLTSNSPRLVQNCLWTLRNLSDVATKQEGLESVLKILVNQLSVDDVNVLTCATGTLSNLTCNNSKNKTLVTQNSGVEALIHAILRAGDKDDITEPAVCALRHLTSRHPEAEMAQNSVRLNYGIPAIVKLLNQPNQWPLVKATIGLIRNLALCPANHAPLQEASVIPRLVQLLVKAHQDAQRHVAAGTQQPYTDGVRMEEIVEGCTGALHILARDPMNRMEIFRLNTIPLFVQLLYSSVENIQRVAAGVLCELAQDKEAADAIDAEGASSPLMELLHSRNEGTATYAAAVLFRISEDKNPDYRKRVSVELTNSLFKHDPAAWEAAQSMIPINEPYADDMDATYRPMYSSDVPLDPLEMHMDMDGDYPMDTYSDGLRPPYPAADHMLA
In the case of B5, the binding [3] is reported as “binds”.

B6: Opioid growth factor receptor (protein, UniProt A0A8W4FNH8 1-689)
chain: MEDPDCDSTWEDDEEEDGEGPFSRAYEGGEARRTPSLNPQKGFHVRSPGRQHVSDCPDCRFSLALQDLVEPDGNGDMPNLSFYKNEMAFLPNGCFIEDLLKNWKEDYDLLEDNHTYIQWLFPLREPGVNWHAKPLTLQEVEAFKSSPEVKERLVRAYELMLGFYGIQLKDRKTGRVCRAQNYQKRFQNLNWHSHNNLRITRMLKSLGELGLEHFQVPLTRFFLEETLVRRELPGVRQSALDYFVFTVRCRHQRRELLYFAWEHFRPRCRFVWAPLEKLQKFRPCSPPCSPRTGPRWAAKREKGPQDPVLEASAPGQTCGPGRGEEGDREDPGDEAGGEQGPASPNPKESKKRKLEASLRERAPGEPGPSALEVEKIALNLEGCALSQGGLGDGPPEAGSWAPGEAAQPCPQPPGTKVADEVRKRRKVDQGARDGAGVAATRPPAPSGCPEAKEGQSEIKEEADGQAEPEQGAPRSPAAAAETRARGNPRGRENPRGSRGNPLRRRGNPRGSRGNPLRRRGNLQGRGNPPRGRKNPWGRGNPPRRRGNPPWGRGNPPRGRENPWGRGNPLRGRENLSGRGNPPRRRGNPPRRSWWTGGRRPQGRSLAVNPGRLKGWDAGCLGLRPGPRRWLFSVPSSAGLALVVSGHCSGHYSCREDRPHPQRRPRTAEPLPRPRLLASPSSRPSLASSL
With B6 the binding [2] was “binds”.

B7: T-complex protein 1 subunit gamma (protein, UniProt Q29068 1-82)
chain: NAAKTIADIIRTCLGPKSMMKMLLDPMGGIVMTNDGNAILREIQVQHPAAKSMIEISRTQDEEVGDGTTSVIILAGEMLSVA
In the case of B7, the binding [1] is reported as “binds”.
